Consider one molecule from article PMC11404382.

The assay deals with V5-tagged C16orf62 (pQCXIP-C16orf62-V5). In words: co-IP; lysate supernatants containing APN-HA and C16orf62-V5 mixed for 4 h at 4°C, then mouse anti-V5 mAb overnight, then protein A/G beads for 4 h; washed five times; Western blot (anti-APN mAb).

These are yes or no findings as the source states them, for the method shown. Binding seen in cells or lysates may run through a third protein. A result given as binding can be weak or reduced; the word gives no strength. Tags and fused reporters may be left off the sequences shown.

B1: HA-tagged APN (pQCXIP-APN-HA) (receptor, UniProt P15145 1-963)
chain: MAKGFYISKALGILGILLGVAAVATIIALSVVYAQEKNKNAEHVPQAPTSPTITTTAAITLDQSKPWNRYRLPTTLLPDSYNVTLRPYLTPNADGLYIFKGKSIVRLLCQEPTDVIIIHSKKLNYTTQGHMVVLRGVGDSQVPEIDRTELVELTEYLVVHLKGSLQPGHMYEMESEFQGELADDLAGFYRSEYMEGNVKKVLATTQMQSTDARKSFPCFDEPAMKATFNITLIHPNNLTALSNMPPKGSSTPLAEDPNWSVTEFETTPVMSTYLLAYIVSEFQSVNETAQNGVLIRIWARPNAIAEGHGMYALNVTGPILNFFANHYNTSYPLPKSDQIALPDFNAGAMENWGLVTYRENALLFDPQSSSISNKERVVTVIAHELAHQWFGNLVTLAWWNDLWLNEGFASYVEYLGADHAEPTWNLKDLIVPGDVYRVMAVDALASSHPLTTPAEEVNTPAQISEMFDSISYSKGASVIRMLSNFLTEDLFKEGLASYLHAFAYQNTTYLDLWEHLQKAVDAQTSIRLPDTVRAIMDRWTLQMGFPVITVDTKTGNISQKHFLLDSESNVTRSSAFDYLWIVPISSIKNGVMQDHYWLRDVSQAQNDLFKTASDDWVLLNVNVTGYFQVNYDEDNWRMIQHQLQTNLSVIPVINRAQVIYDSFNLATAHMVPVTLALDNTLFLNGEKEYMPWQAALSSLSYFSLMFDRSEVYGPMKKYLRKQVEPLFQHFETLTKNWTERPENLMDQYSEINAISTACSNGLPQCENLAKTLFDQWMSDPENNPIHPNLRSTIYCNAIAQGGQDQWDFAWGQLQQAQLVNEADKLRSALACSNEVWLLNRYLGYTLNPDLIRKQDATSTINSIASNVIGQPLAWDFVQSNWKKLFQDYGGGSFSFSNLIQGVTRRFSSEFELQQLEQFKKNNMDVGFGSGTRALEQALEKTKANIKWVKENKEVVLNWFIEHS
For the molecule B1, the binding result is “binds”.
